The record followed here is doi:10.1101/2024.09.12.612642.

Results are given in words; binding and its absence hold for the method and conditions named. Binding seen in cells or lysates may run through a third protein. Some results given as binding are weak or reduced against the parent protein; the word gives no strength. Where a sequence is shown, tags or fusion partners need not be part of it.

The test addresses T1, AL5 (Arabidopsis (endogenous in floral tissue)) (UniProt Q5XEM9).
T1 sequence: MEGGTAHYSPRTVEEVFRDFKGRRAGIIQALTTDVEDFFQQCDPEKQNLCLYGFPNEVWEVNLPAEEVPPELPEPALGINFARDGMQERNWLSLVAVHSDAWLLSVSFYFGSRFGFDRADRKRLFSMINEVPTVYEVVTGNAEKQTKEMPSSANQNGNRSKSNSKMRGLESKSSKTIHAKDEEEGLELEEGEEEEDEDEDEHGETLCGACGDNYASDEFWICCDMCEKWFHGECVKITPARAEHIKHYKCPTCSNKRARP
The test is described as follows: co-IP.

B1: ARP6-3xFLAG-BLRP (protein, UniProt Q8LGE3 1-421)
chain: MSNIVVLDNGGGLIKAGQGGERDPTTVIPNCLYKPLSSKKFIHPSPLTTLSDEIDLTSAAVRRPIDRGYLINSDLQREIWSHLFTSLLHIAPSSSSLLLTEAPLSIPSVQRTTDELVFEDFGFSSLYIAHPQSLVHLYEASRQPDSILSKTQCSLVVDCGFSFTHAVPVLHNFTLNHAIKRIDLGGKAFTNYLKELVSYRSINVMDETFLVDDAKEKLCFVSLDLLRDLRLARNGNTLIKSTYVLPDGVTHTKGYVKDPQAAKRFLSLSEKESVVVMDKVGERKKADMNKNEIDLTNERFLVPETLFQPADLGMNQAGLAECIVRAINSCHSYLQPVLYQSIILTGGSTLFPQLKERLEGELRPLVPDHFDVKITTQEDPILGVWRGGSLLASSPDFESMCVTKAEYEELGSARCRRRFFH
In the case of B1, the binding result was “binds”.

B2: ARP6-9xMYC-BLRP (protein, UniProt Q8LGE3 1-421)
chain: MSNIVVLDNGGGLIKAGQGGERDPTTVIPNCLYKPLSSKKFIHPSPLTTLSDEIDLTSAAVRRPIDRGYLINSDLQREIWSHLFTSLLHIAPSSSSLLLTEAPLSIPSVQRTTDELVFEDFGFSSLYIAHPQSLVHLYEASRQPDSILSKTQCSLVVDCGFSFTHAVPVLHNFTLNHAIKRIDLGGKAFTNYLKELVSYRSINVMDETFLVDDAKEKLCFVSLDLLRDLRLARNGNTLIKSTYVLPDGVTHTKGYVKDPQAAKRFLSLSEKESVVVMDKVGERKKADMNKNEIDLTNERFLVPETLFQPADLGMNQAGLAECIVRAINSCHSYLQPVLYQSIILTGGSTLFPQLKERLEGELRPLVPDHFDVKITTQEDPILGVWRGGSLLASSPDFESMCVTKAEYEELGSARCRRRFFH
Take B2: the binding entry was “binds”.
